Measurements taken from patent US20060004044A1, “3-glyoxylamideindoles for treating cancer” (Synta Pharmaceuticals Corp., priority 2001, published 2006).
Some entries share one result that the patent states for a list of compounds.

Test system: MDA435 human breast tumor
Assay: Tumor growth inhibition assay, human breast tumor (MDA435) xenograft model, oral treatment
Type: in vivo
Details: nude mice, orally every second day

| Compound | reduction of volume of tumors (50 mg/kg) | reduction of volume of tumors (25 mg/kg) |
| --- | --- | --- |
| NC(=O)c1ccc(NC(=O)C(=O)c2cn(Cc3ccc(Cl)cc3)c3ccccc23)cc1 [Compound (3)] | greater than 50% |  |
| O=C(Nc1ccc2ncccc2c1)C(=O)c1cn(Cc2ccc(Cl)cc2)c2ccccc12 [Compound (5)] |  | greater than 50% |
